Test results as given in article doi:10.1101/2024.04.25.591054.
Read-outs that look alike come from different tables or passages of the source. These are yes or no findings as the source states them, for the method shown. Some results given as binding are weak or reduced against the parent protein; the word gives no strength.

Protein sequences, listed by entry. Tags and fused reporters are not part of them.
UniProt O00401: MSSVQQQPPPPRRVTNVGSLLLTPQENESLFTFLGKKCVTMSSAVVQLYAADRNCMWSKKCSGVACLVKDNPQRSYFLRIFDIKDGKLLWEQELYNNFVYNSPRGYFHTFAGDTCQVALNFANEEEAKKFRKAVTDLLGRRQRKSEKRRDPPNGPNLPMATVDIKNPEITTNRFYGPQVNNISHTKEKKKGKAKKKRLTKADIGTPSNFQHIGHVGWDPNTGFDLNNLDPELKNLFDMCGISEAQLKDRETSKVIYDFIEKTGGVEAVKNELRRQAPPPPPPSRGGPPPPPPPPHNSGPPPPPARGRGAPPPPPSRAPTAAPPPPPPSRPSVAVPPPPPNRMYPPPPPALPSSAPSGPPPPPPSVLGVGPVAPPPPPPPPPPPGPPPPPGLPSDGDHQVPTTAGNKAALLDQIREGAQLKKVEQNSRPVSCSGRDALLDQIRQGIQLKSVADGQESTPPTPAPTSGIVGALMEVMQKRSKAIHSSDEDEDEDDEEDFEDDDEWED

Legend:
FBP17 (aa 1-617) [1] = biological target: T1, FBP17 (aa 1-617) (UniProt Q96RU3); assay: TIRF single-particle imaging on a flat supported lipid bilayer
T1 sequence (chain, Alexa Fluor 647 on primary amines (AF647-FBP17, in the imaging assays)): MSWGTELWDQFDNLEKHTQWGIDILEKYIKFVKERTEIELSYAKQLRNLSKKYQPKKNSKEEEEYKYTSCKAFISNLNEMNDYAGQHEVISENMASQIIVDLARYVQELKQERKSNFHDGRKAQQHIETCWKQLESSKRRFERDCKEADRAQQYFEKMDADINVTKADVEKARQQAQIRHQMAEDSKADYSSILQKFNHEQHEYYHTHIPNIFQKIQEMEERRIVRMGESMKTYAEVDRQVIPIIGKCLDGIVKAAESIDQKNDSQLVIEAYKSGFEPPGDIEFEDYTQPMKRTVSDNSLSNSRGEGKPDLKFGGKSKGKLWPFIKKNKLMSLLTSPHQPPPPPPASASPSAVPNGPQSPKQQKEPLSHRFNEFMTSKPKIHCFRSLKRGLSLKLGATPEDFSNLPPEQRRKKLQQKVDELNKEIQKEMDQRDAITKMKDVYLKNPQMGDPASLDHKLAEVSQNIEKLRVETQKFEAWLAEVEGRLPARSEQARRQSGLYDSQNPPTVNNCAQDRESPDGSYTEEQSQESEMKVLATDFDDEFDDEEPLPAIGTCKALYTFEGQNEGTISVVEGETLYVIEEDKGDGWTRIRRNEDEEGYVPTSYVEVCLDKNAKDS

FBP17 (aa 1-617) [2] = biological target: T1, FBP17 (aa 1-617)

N-WASP (aa 1-505), full length, auto-inhibited (from UniProt O00401 1-505)
binding (FBP17 (aa 1-617) [1]): binds | binding (FBP17 (aa 1-617) [2]): binds
